This is one part of the list. The signal is at background level for most entries.
Tests used:
Test in all cases: fluorescence intensity of antibody binding to polysaccharide-coupled beads; higher = stronger binding
[1] = target: pneumococcal polysaccharide Pn34
[2] = target: pneumococcal polysaccharide Pn35A
[3] = target: pneumococcal polysaccharide Pn35B
[4] = target: pneumococcal polysaccharide Pn35C
[5] = target: pneumococcal polysaccharide Pn35F
[6] = target: pneumococcal polysaccharide Pn36
[7] = target: pneumococcal polysaccharide Pn37
[8] = target: pneumococcal polysaccharide Pn38
[9] = target: pneumococcal polysaccharide Pn39
[10] = target: pneumococcal polysaccharide Pn4
[11] = target: pneumococcal polysaccharide Pn40
[12] = target: pneumococcal polysaccharide Pn41A
[13] = target: pneumococcal polysaccharide Pn41F
[14] = target: pneumococcal polysaccharide Pn42
[15] = target: pneumococcal polysaccharide Pn43
[16] = target: pneumococcal polysaccharide Pn44
[17] = target: pneumococcal polysaccharide Pn45
[18] = target: pneumococcal polysaccharide Pn46
[19] = target: pneumococcal polysaccharide Pn47A
[20] = target: pneumococcal polysaccharide Pn47F
[21] = target: pneumococcal polysaccharide Pn48
[22] = target: pneumococcal polysaccharide Pn5
[23] = target: pneumococcal polysaccharide Pn6A
[24] = antibody concentration 0.1 ng/mL
[25] = antibody concentration 0.534724 ng/mL
[26] = antibody concentration 2.8593 ng/mL
[27] = antibody concentration 15.2894 ng/mL
[28] = antibody concentration 81.7561 ng/mL
[29] = antibody concentration 437.17 ng/mL
[30] = antibody concentration 2337.65 ng/mL
[31] = antibody concentration 12500 ng/mL

B1: 3S41.3 (protein)
chain 1: EVQLVESGGGLVQPGGSLRLSCATSGFTFSNYWMYWFRQAPGKGLEWVSTISGSSSNTYYPDSVKGRFTISRDNAKNTLYLQINSLRAEDTAVYYCARRHDHSSGWAFDYWGQGVLVTVSS
chain 2: EIVMTQSPATLSLSPGERATLSCRASQSVGSNLAWYQQKPGQAPKLLIYDASSRATGIPDRFSGSGSGTDFTLTVSSLEPEDVGVYYCQQYNNWKTFGQGTKVEIK
[1]; [24]
  fluorescence intensity: 13 MFI
[1]; [25]
  fluorescence intensity: 13 MFI
[1]; [26]
  fluorescence intensity: 14.5 MFI
[1]; [27]
  fluorescence intensity: 12.8 MFI
[1]; [28]
  fluorescence intensity: 15 MFI
[1]; [29]
  fluorescence intensity: 16 MFI
[1]; [30]
  fluorescence intensity: 30.2 MFI
[1]; [31]
  fluorescence intensity: 70.8 MFI
[2]; [24]
  fluorescence intensity: 16.2 MFI
[2]; [25]
  fluorescence intensity: 16.2 MFI
[2]; [26]
  fluorescence intensity: 16 MFI
[2]; [27]
  fluorescence intensity: 15.8 MFI
[2]; [28]
  fluorescence intensity: 16.2 MFI
[2]; [29]
  fluorescence intensity: 26.5 MFI
[2]; [30]
  fluorescence intensity: 171 MFI
[2]; [31]
  fluorescence intensity: 623 MFI
[3]; [24]
  fluorescence intensity: 16.8 MFI
[3]; [25]
  fluorescence intensity: 17.2 MFI
[3]; [26]
  fluorescence intensity: 17 MFI
[3]; [27]
  fluorescence intensity: 17 MFI
[3]; [28]
  fluorescence intensity: 17.5 MFI
[3]; [29]
  fluorescence intensity: 24 MFI
[3]; [30]
  fluorescence intensity: 108 MFI
[3]; [31]
  fluorescence intensity: 417 MFI
[4]; [24]
  fluorescence intensity: 19.5 MFI
[4]; [25]
  fluorescence intensity: 19 MFI
[4]; [26]
  fluorescence intensity: 18.5 MFI
[4]; [27]
  fluorescence intensity: 21.5 MFI
[4]; [28]
  fluorescence intensity: 18.5 MFI
[4]; [29]
  fluorescence intensity: 19.5 MFI
[4]; [30]
  fluorescence intensity: 25.8 MFI
[4]; [31]
  fluorescence intensity: 54.5 MFI
[5]; [24]
  fluorescence intensity: 20 MFI
[5]; [25]
  fluorescence intensity: 17 MFI
[5]; [26]
  fluorescence intensity: 18 MFI
[5]; [27]
  fluorescence intensity: 24.5 MFI
[5]; [28]
  fluorescence intensity: 14.8 MFI
[5]; [29]
  fluorescence intensity: 19.2 MFI
[5]; [30]
  fluorescence intensity: 25 MFI
[5]; [31]
  fluorescence intensity: 56 MFI
[6]; [24]
  fluorescence intensity: 14.5 MFI
[6]; [25]
  fluorescence intensity: 14.5 MFI
[6]; [26]
  fluorescence intensity: 15.5 MFI
[6]; [27]
  fluorescence intensity: 16 MFI
[6]; [28]
  fluorescence intensity: 17.5 MFI
[6]; [29]
  fluorescence intensity: 53.5 MFI
[6]; [30]
  fluorescence intensity: 360 MFI
[6]; [31]
  fluorescence intensity: 805 MFI
[7]; [24]
  fluorescence intensity: 24 MFI
[7]; [25]
  fluorescence intensity: 24.5 MFI
[7]; [26]
  fluorescence intensity: 24.5 MFI
[7]; [27]
  fluorescence intensity: 27 MFI
[7]; [28]
  fluorescence intensity: 31.5 MFI
[7]; [29]
  fluorescence intensity: 151 MFI
[7]; [30]
  fluorescence intensity: 1170 MFI
[7]; [31]
  fluorescence intensity: 2060 MFI
[8]; [24]
  fluorescence intensity: 24.5 MFI
[8]; [25]
  fluorescence intensity: 25.2 MFI
[8]; [26]
  fluorescence intensity: 24 MFI
[8]; [27]
  fluorescence intensity: 24.5 MFI
[8]; [28]
  fluorescence intensity: 25 MFI
[8]; [29]
  fluorescence intensity: 29 MFI
[8]; [30]
  fluorescence intensity: 42.2 MFI
[8]; [31]
  fluorescence intensity: 130 MFI
[9]; [24]
  fluorescence intensity: 18.5 MFI
[9]; [25]
  fluorescence intensity: 17 MFI
[9]; [26]
  fluorescence intensity: 18.2 MFI
[9]; [27]
  fluorescence intensity: 19 MFI
[9]; [28]
  fluorescence intensity: 19 MFI
[9]; [29]
  fluorescence intensity: 24 MFI
[9]; [30]
  fluorescence intensity: 101 MFI
[9]; [31]
  fluorescence intensity: 394 MFI
[10]; [24]
  fluorescence intensity: 17.8 MFI
[10]; [25]
  fluorescence intensity: 16.5 MFI
[10]; [26]
  fluorescence intensity: 18.5 MFI
[10]; [27]
  fluorescence intensity: 17.8 MFI
[10]; [28]
  fluorescence intensity: 22.8 MFI
[10]; [29]
  fluorescence intensity: 28.5 MFI
[10]; [30]
  fluorescence intensity: 47.5 MFI
[10]; [31]
  fluorescence intensity: 87.5 MFI
[11]; [24]
  fluorescence intensity: 16.2 MFI
[11]; [25]
  fluorescence intensity: 16 MFI
[11]; [26]
  fluorescence intensity: 15.2 MFI
[11]; [27]
  fluorescence intensity: 16 MFI
[11]; [28]
  fluorescence intensity: 19 MFI
[11]; [29]
  fluorescence intensity: 63.5 MFI
[11]; [30]
  fluorescence intensity: 530 MFI
[11]; [31]
  fluorescence intensity: 1140 MFI
[12]; [24]
  fluorescence intensity: 24 MFI
[12]; [25]
  fluorescence intensity: 21.2 MFI
[12]; [26]
  fluorescence intensity: 22.5 MFI
[12]; [27]
  fluorescence intensity: 21.5 MFI
[12]; [28]
  fluorescence intensity: 24 MFI
[12]; [29]
  fluorescence intensity: 28 MFI
[12]; [30]
  fluorescence intensity: 32.2 MFI
[12]; [31]
  fluorescence intensity: 50.5 MFI
[13]; [24]
  fluorescence intensity: 12.2 MFI
[13]; [25]
  fluorescence intensity: 12 MFI
[13]; [26]
  fluorescence intensity: 11.5 MFI
[13]; [27]
  fluorescence intensity: 12 MFI
[13]; [28]
  fluorescence intensity: 14.5 MFI
[13]; [29]
  fluorescence intensity: 17.5 MFI
[13]; [30]
  fluorescence intensity: 38.5 MFI
[13]; [31]
  fluorescence intensity: 80.5 MFI
[14]; [24]
  fluorescence intensity: 11 MFI
[14]; [25]
  fluorescence intensity: 12 MFI
[14]; [26]
  fluorescence intensity: 11 MFI
[14]; [27]
  fluorescence intensity: 12 MFI
[14]; [28]
  fluorescence intensity: 12.5 MFI
[14]; [29]
  fluorescence intensity: 26 MFI
[14]; [30]
  fluorescence intensity: 179 MFI
[14]; [31]
  fluorescence intensity: 387 MFI
[15]; [24]
  fluorescence intensity: 13.5 MFI
[15]; [25]
  fluorescence intensity: 15 MFI
[15]; [26]
  fluorescence intensity: 15.2 MFI
[15]; [27]
  fluorescence intensity: 16.5 MFI
[15]; [28]
  fluorescence intensity: 21 MFI
[15]; [29]
  fluorescence intensity: 113 MFI
[15]; [30]
  fluorescence intensity: 1000 MFI
[15]; [31]
  fluorescence intensity: 1970 MFI
[16]; [24]
  fluorescence intensity: 24.5 MFI
[16]; [25]
  fluorescence intensity: 23.5 MFI
[16]; [26]
  fluorescence intensity: 24.5 MFI
[16]; [27]
  fluorescence intensity: 22.5 MFI
[16]; [28]
  fluorescence intensity: 25.5 MFI
[16]; [29]
  fluorescence intensity: 27.5 MFI
[16]; [30]
  fluorescence intensity: 40.2 MFI
[16]; [31]
  fluorescence intensity: 74.2 MFI
[17]; [24]
  fluorescence intensity: 10.2 MFI
[17]; [25]
  fluorescence intensity: 10.5 MFI
[17]; [26]
  fluorescence intensity: 11 MFI
[17]; [27]
  fluorescence intensity: 11.5 MFI
[17]; [28]
  fluorescence intensity: 11 MFI
[17]; [29]
  fluorescence intensity: 13 MFI
[17]; [30]
  fluorescence intensity: 17 MFI
[17]; [31]
  fluorescence intensity: 31.2 MFI
[18]; [24]
  fluorescence intensity: 22 MFI
[18]; [25]
  fluorescence intensity: 23 MFI
[18]; [26]
  fluorescence intensity: 23 MFI
[18]; [27]
  fluorescence intensity: 22.5 MFI
[18]; [28]
  fluorescence intensity: 26 MFI
[18]; [29]
  fluorescence intensity: 50.5 MFI
[18]; [30]
  fluorescence intensity: 287 MFI
[18]; [31]
  fluorescence intensity: 744 MFI
[19]; [24]
  fluorescence intensity: 16.2 MFI
[19]; [25]
  fluorescence intensity: 15 MFI
[19]; [26]
  fluorescence intensity: 15 MFI
[19]; [27]
  fluorescence intensity: 15 MFI
[19]; [28]
  fluorescence intensity: 15.5 MFI
[19]; [29]
  fluorescence intensity: 22 MFI
[19]; [30]
  fluorescence intensity: 67.2 MFI
[19]; [31]
  fluorescence intensity: 138 MFI
[20]; [24]
  fluorescence intensity: 11 MFI
[20]; [25]
  fluorescence intensity: 11.2 MFI
[20]; [26]
  fluorescence intensity: 10.5 MFI
[20]; [27]
  fluorescence intensity: 12 MFI
[20]; [28]
  fluorescence intensity: 14.5 MFI
[20]; [29]
  fluorescence intensity: 39.5 MFI
[20]; [30]
  fluorescence intensity: 338 MFI
[20]; [31]
  fluorescence intensity: 704 MFI
[21]; [24]
  fluorescence intensity: 21 MFI
[21]; [25]
  fluorescence intensity: 21.5 MFI
[21]; [26]
  fluorescence intensity: 20.2 MFI
[21]; [27]
  fluorescence intensity: 21 MFI
[21]; [28]
  fluorescence intensity: 26 MFI
[21]; [29]
  fluorescence intensity: 41.2 MFI
[21]; [30]
  fluorescence intensity: 59.2 MFI
[21]; [31]
  fluorescence intensity: 101 MFI
[22]; [24]
  fluorescence intensity: 8 MFI
[22]; [25]
  fluorescence intensity: 9 MFI
[22]; [26]
  fluorescence intensity: 8.5 MFI
[22]; [27]
  fluorescence intensity: 9 MFI
[22]; [28]
  fluorescence intensity: 10.8 MFI
[22]; [29]
  fluorescence intensity: 42.5 MFI
[22]; [30]
  fluorescence intensity: 372 MFI
[22]; [31]
  fluorescence intensity: 837 MFI
[23]; [24]
  fluorescence intensity: 22.5 MFI
[23]; [25]
  fluorescence intensity: 19.8 MFI
[23]; [26]
  fluorescence intensity: 20.8 MFI
[23]; [27]
  fluorescence intensity: 21 MFI

Reference: the supplement of paper PMC11438910
